Some of these results come from one statement about several compounds together.
What was measured:
[1] = system: EGFP in MDA-MB-231 cells; test: EGFP knockout by chip-delivered sgRNA/Cas9 plasmids, flow cytometry; type: cell-based, human; settings: passed through device three times, 7 days recovery
[2] = system: EGFP in SU-DHL-1 lymphoma cells; test: as above; type: cell-based, human; settings: passed through device three times, 7 days recovery

Substance | EGFP knockout efficiency [1] [%] | EGFP knockout efficiency [2] [%]
sgEGFP-2: plasmid encoding Cas9 and sgRNA targeting EGFP, 20-bp target sequence GAGCTGGACGGCGACGTAAA (target sequence; plasmid with Cas9) | > 90 | > 70
sgEGFP-1: plasmid encoding Cas9 and sgRNA targeting EGFP, 20-bp target sequence GGGCGAGGAGCTGTTCACCG (the letters are possibly those of the target site) | > 90 | > 70
